Measured values as given in the supplement of paper PMC9233669.
Variants at the floor of the assay are shown more often than the library holds them.

Tests used:
biotinyl-Trp-oxazolone = assay: self-aminoacylation, catalytic enhancement (BWO) (fold over background); higher = more active; k-Seq, kA / k0A0; sequences stand for … in GGGAAUGGAUCCACAUCUACGAAUUC…UUCACUGCAGACUUGACGAAGCUG
How it was run: (§1)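 Mutagenized RNA pools with a 21-nt variable region (0.43 μM) were reacted with each biotinyl-aminoacyl-oxazolone at 2–1250 μM for 90 minutes at room temperature, in 50 μL HEPES/NaCl/KCl/MgCl2/CaCl2 buffer containing 5% acetonitrile at pH 6.9–7.0. RNA captured on streptavidin was quantified by triplicate qPCR and by Illumina sequencing. The fraction reacted for each sequence was fit to a pseudo-first-order model with bootstrapping, and catalytic enhancement is the median kA divided by the uncatalyzed rate, taken as the low-activity peak of a bimodal Gaussian fit.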

biotinyl-Met-oxazolone = assay: self-aminoacylation, catalytic enhancement (BMO) (fold over background); higher = more active; k-Seq, kA / k0A0; sequences stand for … in GGGAAUGGAUCCACAUCUACGAAUUC…UUCACUGCAGACUUGACGAAGCUG
How it was run: as §1

biotinyl-Leu-oxazolone = assay: self-aminoacylation, catalytic enhancement (BLO) (fold over background); higher = more active; k-Seq, kA / k0A0; sequences stand for … in GGGAAUGGAUCCACAUCUACGAAUUC…UUCACUGCAGACUUGACGAAGCUG
How it was run: as §1

biotinyl-Val-oxazolone = assay: self-aminoacylation, catalytic enhancement (BVO) (fold over background); higher = more active; k-Seq, kA / k0A0; sequences stand for … in GGGAAUGGAUCCACAUCUACGAAUUC…UUCACUGCAGACUUGACGAAGCUG
How it was run: as §1

biotinyl-Phe-oxazolone = assay: self-aminoacylation, catalytic enhancement (BFO) (fold over background); higher = more active; k-Seq, kA / k0A0; sequences stand for … in GGGAAUGGAUCCACAUCUACGAAUUC…UUCACUGCAGACUUGACGAAGCUG
How it was run: as §1

biotinyl-Ile-oxazolone = assay: self-aminoacylation, catalytic enhancement (BIO) (fold over background); higher = more active; k-Seq, kA / k0A0; sequences stand for … in GGGAAUGGAUCCACAUCUACGAAUUC…UUCACUGCAGACUUGACGAAGCUG
How it was run: as §1

Row | Sequence | self-aminoacylation (biotinyl-Trp-oxazolone) | self-aminoacylation (biotinyl-Met-oxazolone) | self-aminoacylation (biotinyl-Leu-oxazolone) | self-aminoacylation (biotinyl-Val-oxazolone) | self-aminoacylation (biotinyl-Phe-oxazolone) | self-aminoacylation (biotinyl-Ile-oxazolone)
1 | AUUACCCUGUUCAUCGACUGA [Fam2.1 aminoacylation ribozyme variant] | 0.87 | 1.3 | 1.11 | 1.26 | 0.787 | 1.17
2 | AUUCACUUAGUUCAUCGGGUG [Fam2.2 aminoacylation ribozyme variant] | 3.28 | 2.58 | 2.93 | 1.88 | 11.1 | 2.18
3 | AAGUUUGGGAAUAGUCGCAAG [Fam3.1 aminoacylation ribozyme variant] | 1.69 | 0.876 | 1.05 | 1.25 | 1.95 | 1.32
4 | AUUCAACUAGGUUAUCGGGUG [Fam2.2 aminoacylation ribozyme variant] | 3.46 | 3.29 | 3.61 | 2.45 | 22.1 | 2.21
5 | AAGUUUGCUAAUAGUCUCACG [Fam3.1 aminoacylation ribozyme variant] | 0.996 | 0.701 | 0.712 | 0.727 | 0.693 | 0.708
6 | AUUACCAUGGUCAUCGAAUGA [Fam2.1 aminoacylation ribozyme variant] | 1.23 | 1.06 | 1.17 | 1.08 | 0.809 | 1.23
7 | AUUCUACUAGGUCAUCGGGUG [Fam2.2 aminoacylation ribozyme variant] | 5.93 | 5.82 | 7.31 | 3.87 | 41.7 | 3.7
8 | AAGUUUGCUAAUAGUCGAACG [Fam3.1 aminoacylation ribozyme variant] | 0.668 | 0.828 | 0.67 | 0.699 | 1.19 | 0.713
9 | CUACUCCAAGCAAUCGGUCUG [Fam1A.1 aminoacylation ribozyme variant] | 0.955 | 0.959 | 0.835 | 1 | 1.32 | 0.751
10 | CUAGUUCAAACAAUCGGACUG [Fam1A.1 aminoacylation ribozyme variant] | 1 | 0.702 | 0.602 | 0.761 | 1.68 | 0.906
11 | CCACACUACAAGCAAUCGGUA [Fam1B.1 aminoacylation ribozyme variant] | 1.5 | 0.696 | 0.81 | 0.88 | 0.854 | 0.825
12 | CGACACUUGAAGCAAUCGGUC [Fam1B.1 aminoacylation ribozyme variant] | 1.35 | 0.968 | 0.985 | 1.13 | 0.979 | 1.21
13 | CUGCUUCAAACCAUCGGUCUG [Fam1A.1 aminoacylation ribozyme variant] | 0.706 | 0.677 | 0.631 | 0.887 | 0.756 | 0.708
14 | CCACACUUCAGUCAAUCGGUC [Fam1B.1 aminoacylation ribozyme variant] | 1.31 | 1.02 | 1.03 | 0.965 | 1.06 | 1.11
15 | CCACACGGCAAGCAAUCGGUC [Fam1B.1 aminoacylation ribozyme variant] | 1.16 | 0.987 | 0.971 | 1.55 | 0.671 | 1
16 | CUCCUUCAAACAUUCGGUCUG [Fam1A.1 aminoacylation ribozyme variant] | 1.66 | 1.31 | 1.05 | 1.32 | 3.15 | 1.24
17 | CCACACUUCAAGUAAGCGGUC [Fam1B.1 aminoacylation ribozyme variant] | 0.638 | 0.811 | 0.733 | 0.885 | 0.452 | 0.828
18 | AAGUUUGCUAAUGGUCGCAUG [Fam3.1 aminoacylation ribozyme variant] | 0.884 | 1.1 | 1.02 | 0.988 | 1.1 | 0.849
19 | CUACCUCAAACAAUCGGUAUG [Fam1A.1 aminoacylation ribozyme variant] | 1.59 | 0.908 | 0.989 | 0.916 | 1.26 | 1.19
20 | CUUCUUCAAACAAUCAGUCUG [Fam1A.1 aminoacylation ribozyme variant] | 5.05 | 0.676 | 0.814 | 0.772 | 12.3 | 0.732
21 | CCACACUUUAAGCACUCGGUC [Fam1B.1 aminoacylation ribozyme variant] | 0.647 | 0.791 | 0.646 | 1 | 0.689 | 0.881
22 | AAGUUUGCUAAUAUUCGCACG [Fam3.1 aminoacylation ribozyme variant] | 1.35 | 1.36 | 0.994 | 0.853 | 1.27 | 1.01
23 | AUUCACGUAGGUCAUCGGAUG [Fam2.2 aminoacylation ribozyme variant] | 0.8 | 1.05 | 1.02 | 1.1 | 0.395 | 1.02
24 | CCACGCUUCAAGCAACCGGUC [Fam1B.1 aminoacylation ribozyme variant] | 1.03 | 0.822 | 0.701 | 0.947 | 1.24 | 0.806
25 | CCACAUUACAAGCAAUCGGUC [Fam1B.1 aminoacylation ribozyme variant] | 1.15 | 1.16 | 1.04 | 1.21 | 1.05 | 1.3
26 | AUUACCCUGGUCAUGGAGUUA [Fam2.1 aminoacylation ribozyme variant] | 0.695 | 1.23 | 0.899 | 1.13 | 0.664 | 1.04
